Publication PMC10240701
These are yes or no findings as the source states them, for the method shown. Binding seen in cells or lysates may run through a third protein. Some results given as binding are weak or reduced against the parent protein; the word gives no strength. Sequences can lack the tags named with a protein. Blank lines part the entries; values can stand above or below the molecule they belong to.

By UniProt entry, the sequences of proteins in these tests, tags left out. Where a name states a change or a piece, a line headed by the entry shows the natural chain unless it says otherwise.
UniProt P07948: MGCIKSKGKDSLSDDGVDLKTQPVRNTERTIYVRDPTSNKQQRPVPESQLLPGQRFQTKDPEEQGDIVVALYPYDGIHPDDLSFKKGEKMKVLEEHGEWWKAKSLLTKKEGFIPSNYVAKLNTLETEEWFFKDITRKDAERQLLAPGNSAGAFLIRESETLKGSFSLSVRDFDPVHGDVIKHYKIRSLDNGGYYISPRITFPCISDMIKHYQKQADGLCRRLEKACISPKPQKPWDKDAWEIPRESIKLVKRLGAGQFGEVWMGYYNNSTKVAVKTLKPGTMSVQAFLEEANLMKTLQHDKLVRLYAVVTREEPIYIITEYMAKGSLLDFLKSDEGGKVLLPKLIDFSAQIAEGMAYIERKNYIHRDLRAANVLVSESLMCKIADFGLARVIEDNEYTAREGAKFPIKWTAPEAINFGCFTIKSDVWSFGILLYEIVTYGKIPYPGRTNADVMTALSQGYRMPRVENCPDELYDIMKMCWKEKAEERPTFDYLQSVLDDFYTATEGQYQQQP

Legend:
[1] = target: T1, ASPA full length, expressed in HEK293T cells for domain mapping (tag not stated) (human) (UniProt P45381); experiment: co-IP; HEK293T cells cotransfected with the designated plasmids, harvested after 24 h in cold IP lysis buffer; anti-tag antibodies and protein G agarose beads overnight at 4 °C
T1 sequence: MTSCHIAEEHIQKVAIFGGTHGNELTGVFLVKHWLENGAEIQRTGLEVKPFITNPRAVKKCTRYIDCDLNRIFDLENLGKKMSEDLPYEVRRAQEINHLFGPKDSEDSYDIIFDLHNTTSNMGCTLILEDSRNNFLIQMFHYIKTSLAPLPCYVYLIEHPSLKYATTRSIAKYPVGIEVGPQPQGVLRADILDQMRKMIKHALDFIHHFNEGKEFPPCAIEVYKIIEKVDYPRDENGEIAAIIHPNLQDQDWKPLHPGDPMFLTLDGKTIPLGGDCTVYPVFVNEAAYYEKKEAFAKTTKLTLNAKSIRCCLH

[2] = target: GST-HA-LYN (human) (UniProt P07948); experiment: pull-down; GST or GST-fused protein (from transfected HEK293T) immobilized on glutathione-Sepharose 4B beads, incubated with HEK293T cell lysates overnight at 4 °C; washed three times with low-salt GST buffer; immunoblot; only the target purified
[3] = target: Flag-LYN, expressed in PC-3 cells (human) (UniProt P07948); experiment: co-IP; PC-3 cells cotransfected with the designated plasmids, harvested after 24 h in cold IP lysis buffer; anti-tag antibodies and protein G agarose beads overnight at 4 °C

binding [1]: binds
Molecule: LYN (231-512) (from UniProt P07948 231-512) (domain or fragment)

binding [1]: no binding
Molecule: LYN (1-230) (from UniProt P07948 1-230) (domain or fragment)

binding [2]: binds
B1: Flag-ASPA, expressed in HEK293T cells (enzyme, UniProt P45381 1-313)
chain: T1 sequence

binding [3]: binds
B2: ASPA co-expressed with Flag-tagged kinases in PC-3 cells (tag not stated) (enzyme, UniProt P45381 1-313)
chain: T1 sequence
